Data from patent publication US20110250133A1, “GASTRIN RELEASING PEPTIDE COMPOUNDS” (priority 2003, published 2011).
Where a name gives a salt, the structure may show the parent alone.

Test system: BT-474 tumor-bearing nude mice

Row | SMILES | decrease in 177Lu-AMBA binding of tumor (25 mg/kg, day 14, β2-estradiol supplemented BT-474 tumor bearing mice, 1 h, vs control tumor) [%] | 177Lu-AMBA in Blood (% ID) after Tamoxifen (BT-474 mice, +Tamoxifen/+ES, 1 hr, control 0.14 ± 0.06) [% ID] | 177Lu-AMBA in Kidneys (% ID) after Tamoxifen (BT-474 mice, +Tamoxifen/+ES, 1 hr, control 2.69 ± 0.28) [% ID] | 177Lu-AMBA in Gastrointestinal (% ID) after Tamoxifen (BT-474 mice, +Tamoxifen/+ES, 1 hr, control 11.93 ± 0.43) [% ID] | 177Lu-AMBA in Pancreas (% ID) after Tamoxifen (BT-474 mice, +Tamoxifen/+ES, 1 hr, control 12.50 ± 0.67) [% ID] | 177Lu-AMBA in Bladder/urine (% ID) after Tamoxifen (BT-474 mice, +Tamoxifen/+ES, 1 hr, control 42.79 ± 1.58) [% ID] | 177Lu-AMBA in Tumor (% ID/g) after Tamoxifen (BT-474 mice, +Tamoxifen/+ES, day 14, 1 hr after 177Lu-AMBA, control 2.18 ± 0.63, P < 0.05) [% ID/g]
1 | CC/C(=C(\c1ccccc1)c1ccc(OCCN(C)C)cc1)c1ccccc1 [Tamoxifen citrate] | 68 | – | – | – | – | – | –
2 | CC/C(=C(\c1ccccc1)c1ccc(OCCN(C)C)cc1)c1ccccc1 [Tamoxifen] | – | 0.13 ± 0.05 | 2.30 ± 0.88 | 10.93 ± 3.19 | 9.81 ± 2.83 | 54.82 ± 6.54 | 0.70 ± 0.39
